# Library screening results

The chains behind the UniProt entries cited, without tags or fusion partners.
UniProt E9BF75, entry or part of it: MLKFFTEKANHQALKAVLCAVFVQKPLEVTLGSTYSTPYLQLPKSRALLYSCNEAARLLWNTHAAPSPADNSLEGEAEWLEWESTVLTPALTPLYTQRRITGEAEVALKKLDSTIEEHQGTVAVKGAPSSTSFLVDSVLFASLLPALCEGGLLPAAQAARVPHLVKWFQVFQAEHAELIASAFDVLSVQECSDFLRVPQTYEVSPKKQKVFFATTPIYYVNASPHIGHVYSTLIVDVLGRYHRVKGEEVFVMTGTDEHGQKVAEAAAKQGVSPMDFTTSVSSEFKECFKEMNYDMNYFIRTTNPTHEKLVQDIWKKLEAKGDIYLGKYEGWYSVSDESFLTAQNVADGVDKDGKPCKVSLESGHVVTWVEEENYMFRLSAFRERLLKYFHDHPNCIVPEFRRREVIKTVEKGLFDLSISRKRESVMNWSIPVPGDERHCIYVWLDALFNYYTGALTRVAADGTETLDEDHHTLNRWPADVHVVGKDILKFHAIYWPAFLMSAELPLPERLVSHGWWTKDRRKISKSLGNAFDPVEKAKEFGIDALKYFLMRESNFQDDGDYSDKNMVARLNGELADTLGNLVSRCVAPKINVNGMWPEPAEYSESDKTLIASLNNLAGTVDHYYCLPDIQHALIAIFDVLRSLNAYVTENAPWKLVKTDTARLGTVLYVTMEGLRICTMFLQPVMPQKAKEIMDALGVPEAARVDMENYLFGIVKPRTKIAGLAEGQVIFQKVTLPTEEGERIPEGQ

Results are percentages, as filed. The record does not define 0% and 100%; most values in the screen are far below 50% and negative numbers occur (in some assays of this library far below -100). Compounds were drawn at random from those tested, without regard to their results.

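Methionyl-tRNA synthetase (putative), Leishmania donovani (UniProt E9BF75). Primary screen of methionyl-tRNA synthetase; the read-out is not stated. The test concentration is not given. The values are filed as inhibition. Size under these conditions: about 68,000 compounds, about 24 of them at 50% or above in at least one test.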

| Compound | inhibition |
|---|---|
| `COc1cccc2c1OCC(NCCc1cnn(-c3ccccc3)c1)C2` (centres unmarked) | 16.54 |
| `O=C(CCn1ccnc1)N1CC[C@H](Oc2cccc(F)c2)[C@@H](O)CC1` | 5.233 |
| `O=C(Cc1ccc(F)cc1)NCC(O)(c1cccs1)C1CC1` (centres unmarked) | -2.158 |
| `Cc1cnn(CCNCc2ccc(OCc3csc(C)n3)cc2)c1` | 11.71 |
| `CSCC(=O)N1CCCCC1Cn1cc(C)cn1` (centres unmarked) | 22.64 |
| `Cc1cnc(CCNc2cccc(CC3CCCNC3)n2)s1` (centres unmarked) | 15.96 |
| `COCCNCc1cc2cc(C)cc(C)c2[nH]c1=O` | 14.89 |
| `Cc1cccc(C(=O)N2CCC3(CC(C(=O)N(C)C(C)C)=NO3)C2)c1` (centres unmarked) | -4.294 |
| `Cc1cc(CN2CCCC2c2noc(C(C)C)n2)on1` (centres unmarked) | 11.68 |
| `CCN(C)S(=O)(=O)N1CCCC1CC(=O)c1cccs1` (centres unmarked) | 1.003 |
| `CNC(=O)c1cn[nH]c1C1(C)CCCN(CC2(O)CCCCC2)C1` (centres unmarked) | 18.01 |
| `Cn1cc(C(=O)NCCc2ccc(OC3CCCC3)cc2)ccc1=O` | 8.101 |
| `CN(C)c1cc(CNC(=O)c2cc(F)ccc2F)ccn1` | 11.45 |
| `CCc1noc(CN(C)C2CCN(c3sccc3C#N)C2=O)n1` (centres unmarked) | 13.42 |
| `Cc1cnc(C(=O)N2CC[C@H]3C[C@@H](c4nc(C)cs4)O[C@@H]3C2)cn1` | 4.965 |
| `CN(C)C(=O)COC[C@@]12CCC[C@@H]1CN(C1CCCC1)C2` | 10.14 |
| `CS(=O)(=O)NC(=O)c1ccn(-c2cccc(Br)c2)n1` | 15.97 |
| `Cc1ccc(C(CNCc2cnn(C(C)C)c2)N2CCOCC2)s1` (centres unmarked) | 9.524 |
| `Cc1ccc(-c2noc(CN3CCOC(Cn4cncn4)C3)n2)cc1` (centres unmarked) | 5.397 |
| `CC(=O)N1CCc2c(nc(N(C)C)nc2N(C)CCCC2CCCO2)C1` (centres unmarked) | 1.805 |
| `CC(C)(CNC(=O)CCOc1cccc(F)c1)C(N)=O` | 15.31 |
| `COc1ccccc1CNC(=O)C1=NN(c2ccc(C)cc2)C(=O)CN1` | 13.01 |
| `N#CC1(C(=O)N2CCOC(c3ccc(F)cc3)C2)CCCC1` (centres unmarked) | 8.467 |
| `Cc1cccc(CNC(=O)CC2CCN(Cc3ccccn3)CC2)n1` | 19.37 |
| `N#Cc1ccc(NC(=O)C2CSCN2)cc1` (centres unmarked) | 16.13 |
| `CC(C)c1ncc2c(n1)CN(Cc1noc(-c3ccccc3)n1)CC2` | 22.29 |
| `CN(Cc1cnn(C)c1)C(=O)NC1CCCC1` | 9.915 |
| `CCOc1cc2c(cc1C(=O)O)CCC2` | 14.29 |
| `Cc1oc2nc[nH]c(=O)c2c1C(=O)N1CCCC(n2cccn2)C1` (centres unmarked) | 16.67 |
| `CN(C(=O)c1ccc2c(c1)nc(N1CC[C@H](O)C1)n2C)C1CCSCC1` | 5.322 |
| `CC(C)Cc1cc(C(=O)N2CCC(N3CCCC3)CC2)cc(O)n1` | 13.07 |
| `CC1CCC(NC(=O)c2nn(C)cc2I)CC1` (centres unmarked) | 19.89 |
| `NCC1Cc2cc(Oc3cc(F)c(CN4CCCC4)c(F)c3)ccc2O1` (centres unmarked) | 6.03 |
| `O=C(NCCc1cccc(F)c1)C1(n2cnnn2)CCCCC1` | 9.329 |
| `O=C1CO[C@@H]2CNC[C@H]2N1CC1CC1` | 9.524 |
| `Cc1cc(-c2ccc(=O)n(C3CCN(C(=O)C4CCC4)CC3)n2)c(C)o1` | 8.924 |
| `c1cnnc(N[C@@H]2CC[C@@H]3CN(Cc4ccc5cc[nH]c5c4)C[C@@H]32)c1` | 12.89 |
| `Cc1ccccc1CN1C[C@@H]2OCC(=O)N(CC(N)=O)[C@@H]2C1` | 12.03 |
| `CC(=O)N1CCN(CCNS(=O)(=O)c2cc(F)cc(F)c2)CC1` | 13.52 |
| `O=C(c1cccnc1)N1C[C@@H]2CC[C@H](C1)N(Cc1cc(F)ccc1F)C2` | -4.433 |
| `O=C1[C@@H]2CCN(Cc3ccoc3)C[C@@H]2OCCN1c1ccccc1` | 12.2 |
| `CSCCCN1C[C@H](NC(=O)c2ccc(C#N)nc2)[C@@H](C2CC2)C1` | 14.2 |
| `O=C(NC1CCCCC1)N1CCC(n2cc(-c3ccccn3)nn2)CC1` | 13.68 |
| `COCCCC(=O)N1CC(=O)Nc2cc(Br)ccc21` | 10.86 |
| `CC(Cn1cccn1)NCC(=O)N(C)Cc1ccsc1` (centres unmarked) | 3.254 |
| `CCOC(=O)CN1CCC2(CC1)CC(NC(=O)c1ccccn1)CO2` (centres unmarked) | 12.06 |
| `CCC(C)c1noc(C2CCN(C(=O)c3cccnc3)CC2)n1` (centres unmarked) | 18.11 |
| `CC(NC(=O)NCCCN(C)S(C)(=O)=O)c1ccncc1` (centres unmarked) | 12.5 |
| `CN1CCN(C(=O)[C@H]2C[C@@H]3CCN(c4ncc(F)cn4)C[C@@H]3O2)CC1` | 13.81 |
| `CCCSCC(=O)N1C[C@H]2CC[C@@H]1CN(c1ncccn1)C2` | 12.29 |
| `COc1ccc(CNCCc2cc(F)cc3c2OCOC3)c(OC)c1` | 13.88 |
| `CCOc1cc(CNC(C)c2sccc2C)ccn1` (centres unmarked) | 10.78 |
| `O=C(CCc1ccccc1F)NS(=O)(=O)c1ccc2c(c1)OCCCO2` | 18.75 |
| `CCn1cnnc1CCNCc1c[nH]nc1-c1ccc(F)cc1` | 2.93 |
| `OC(CN1CCOCC1)c1ccc(OC(F)(F)F)cc1` (centres unmarked) | 7.19 |
| `Cc1nc(C(=O)NCCS(=O)(=O)N2CCCC2)cs1` | 2.872 |
| `COc1ccccc1OC1CCN(Cc2cnc(N(C)C)nc2)CC1` | 20 |
| `CCn1cc2c(n1)C(COC)CN(Cc1ccoc1)C2` (centres unmarked) | 8.759 |
| `CCC(C)C(=O)N(CC(=O)OC)c1cccc(C)n1` (centres unmarked) | -21.55 |
| `Cc1nc(N)cc(C2CCN2CCOc2ccccc2)n1` (centres unmarked) | 11.75 |
| `COc1cccc(CNC[C@H]2COCc3nc4cccnc4n32)n1` | 12.05 |
| `O=C(c1ccn(COc2ccc(F)cc2)n1)N1CCCCCC1` | -22.36 |
| `Cc1cccnc1CC(C)N(C)C(=O)c1ccoc1C` (centres unmarked) | 6.301 |
| `CCN(CCNC(=O)Nc1nnc(C)s1)C(=O)OC(C)(C)C` | 4.749 |
| `Cc1nc(C2CCCN2Cc2cc(Cl)c3c(c2)OCO3)no1` (centres unmarked) | 12.81 |
| `CCCN1CCN(C(=O)c2cnccc2C)[C@H]2CS(=O)(=O)C[C@H]21` | 18.68 |
| `Cc1c(C(=O)N(CCN(C)C)Cc2ccccn2)oc2ccccc12` | 7.639 |
| `Cc1ccc2cccc(S(=O)(=O)N(C)CC3CCN(C)C3)c2n1` (centres unmarked) | 13.98 |
| `c1csc(-c2nc(CNC3CCc4ncnn4C3)cs2)c1` (centres unmarked) | 13.5 |
| `CC(C)NC[C@@]1(COc2ccccc2)C[C@@H](O)[C@@H](O)C1` | 14.29 |
| `Cc1cc(N2CCC(n3cc(CN4CCNCC4)nn3)CC2)ccn1` | 9.422 |
| `COc1cc2c(nn1)CCN(Cc1noc(CC(C)C)n1)C2` | 15.46 |
| `NCC1CCCCN1C(=O)Cc1cccc(Br)c1` (centres unmarked) | 6.425 |
| `c1ccc(CN2C[C@@H]3COC[C@]3(COCc3ccncc3)C2)nc1` | 10 |
| `CCc1cc(NC(=O)N2CCC(Oc3cccnc3)C2)n(C)n1` (centres unmarked) | 9.218 |
| `Cc1csc2cc(C(=O)NC3CC3)cnc12` | 10.83 |
| `CN(C)c1nc(CNC(=O)N[C@H](CO)c2ccccc2)cs1` | 5.362 |
| `CCOCCCNc1ncc(-c2cccc(F)c2)c(-c2nccn2C)n1` | 9.206 |
| `CC(C)c1sc(Br)nc1C(=O)NCc1cccnc1` | 8.086 |
| `CNC(=O)[C@@H]1CN(C(=O)CCOC)C[C@H]1c1ccnc(N2CCCC2)n1` | 18.55 |
| `CNCc1ccc([C@@H]2CN(C)C[C@H]2C(N)=O)cc1` | 8.1 |
| `Cn1c(Cn2ccnc2)nnc1C1CCN(C(=O)c2ccoc2)CC1` | -12.27 |
| `Cc1cc2nc(CO[C@H]3CN(C(=O)C4CC4)C[C@H]3F)[nH]c2cc1C` | 1.017 |
| `CCc1nsc(N2CCN(C(=O)COc3ccccc3)CC2)n1` | 9.157 |
| `Cn1cnc(S(=O)(=O)N2CCSC3(CCCCC3)C2)c1` | 6.723 |
| `Cn1ccc(-c2cc(C(=O)N3CCCCC3)c3ccccn23)n1` | 14.99 |

For reference, 8 entries once more:

* CC(NC(=O)NCCCN(C)S(C)(=O)=O)c1ccncc1 (centres unmarked) : 12.5%
* Cn1c(Cn2ccnc2)nnc1C1CCN(C(=O)c2ccoc2)CC1 : -12.27%
* Cc1cnc(CCNc2cccc(CC3CCCNC3)n2)s1 (centres unmarked) : 15.96%
* c1cnnc(N[C@@H]2CC[C@@H]3CN(Cc4ccc5cc[nH]c5c4)C[C@@H]32)c1 : 12.89%
* Cc1c(C(=O)N(CCN(C)C)Cc2ccccn2)oc2ccccc12 : 7.639%
* COc1ccc(CNCCc2cc(F)cc3c2OCOC3)c(OC)c1 : 13.88%
* CCOc1cc(CNC(C)c2sccc2C)ccn1 (centres unmarked) : 10.78%
* CNC(=O)[C@@H]1CN(C(=O)CCOC)C[C@H]1c1ccnc(N2CCCC2)n1 : 18.55%

From ChEMBL document CHEMBL3988442, “University of Dundee, Small-Polar-MMV Screening Library” (2021).